In publication PMC6678468 one finds binding data, which are given here for one substance.

For the experiment, the target named is T1, PEX19 (human (endogenous in U251)) (UniProt P40855).
T1 sequence: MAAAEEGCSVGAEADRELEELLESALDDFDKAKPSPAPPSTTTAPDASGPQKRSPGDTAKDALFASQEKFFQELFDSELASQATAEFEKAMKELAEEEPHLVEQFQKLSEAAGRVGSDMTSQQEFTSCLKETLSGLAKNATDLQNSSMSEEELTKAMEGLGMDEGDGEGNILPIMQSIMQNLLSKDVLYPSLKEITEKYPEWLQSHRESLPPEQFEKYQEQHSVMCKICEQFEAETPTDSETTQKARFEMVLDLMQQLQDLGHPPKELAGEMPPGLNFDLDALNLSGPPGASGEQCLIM
Description: co-IP; lysates of U251 cells infected with ZIKV PRVABC59 (MOI = 1, 48 h); NP-40 lysis buffer (150 mM NaCl, 2 mM EDTA, 1% NP-40, 50 mM Tris-HCl pH 7.4, 1 mM DTT); treated with 20 ug/mL RNase A; IP with rabbit anti-ZIKV capsid or rabbit anti-PEX19 (rabbit IgG as negative control), protein G-Sepharose, 4 °C; immunoblot for PEX19 or ZIKV capsid. On the technique in general: In western blotting, separated proteins are transferred to a membrane and probed.

These are yes or no findings as the source states them, for the method shown. Binding seen in cells or lysates may run through a third protein. A result given as binding can be weak or reduced; the word gives no strength.

Regarding “ZIKV capsid protein (strain PRVABC59) (Zika virus (strain PRVABC59))”, the binding result is reported as “binds”.
